Protein sequences, listed by entry. Tags and fused reporters are not part of them.
UniProt Q96Q15: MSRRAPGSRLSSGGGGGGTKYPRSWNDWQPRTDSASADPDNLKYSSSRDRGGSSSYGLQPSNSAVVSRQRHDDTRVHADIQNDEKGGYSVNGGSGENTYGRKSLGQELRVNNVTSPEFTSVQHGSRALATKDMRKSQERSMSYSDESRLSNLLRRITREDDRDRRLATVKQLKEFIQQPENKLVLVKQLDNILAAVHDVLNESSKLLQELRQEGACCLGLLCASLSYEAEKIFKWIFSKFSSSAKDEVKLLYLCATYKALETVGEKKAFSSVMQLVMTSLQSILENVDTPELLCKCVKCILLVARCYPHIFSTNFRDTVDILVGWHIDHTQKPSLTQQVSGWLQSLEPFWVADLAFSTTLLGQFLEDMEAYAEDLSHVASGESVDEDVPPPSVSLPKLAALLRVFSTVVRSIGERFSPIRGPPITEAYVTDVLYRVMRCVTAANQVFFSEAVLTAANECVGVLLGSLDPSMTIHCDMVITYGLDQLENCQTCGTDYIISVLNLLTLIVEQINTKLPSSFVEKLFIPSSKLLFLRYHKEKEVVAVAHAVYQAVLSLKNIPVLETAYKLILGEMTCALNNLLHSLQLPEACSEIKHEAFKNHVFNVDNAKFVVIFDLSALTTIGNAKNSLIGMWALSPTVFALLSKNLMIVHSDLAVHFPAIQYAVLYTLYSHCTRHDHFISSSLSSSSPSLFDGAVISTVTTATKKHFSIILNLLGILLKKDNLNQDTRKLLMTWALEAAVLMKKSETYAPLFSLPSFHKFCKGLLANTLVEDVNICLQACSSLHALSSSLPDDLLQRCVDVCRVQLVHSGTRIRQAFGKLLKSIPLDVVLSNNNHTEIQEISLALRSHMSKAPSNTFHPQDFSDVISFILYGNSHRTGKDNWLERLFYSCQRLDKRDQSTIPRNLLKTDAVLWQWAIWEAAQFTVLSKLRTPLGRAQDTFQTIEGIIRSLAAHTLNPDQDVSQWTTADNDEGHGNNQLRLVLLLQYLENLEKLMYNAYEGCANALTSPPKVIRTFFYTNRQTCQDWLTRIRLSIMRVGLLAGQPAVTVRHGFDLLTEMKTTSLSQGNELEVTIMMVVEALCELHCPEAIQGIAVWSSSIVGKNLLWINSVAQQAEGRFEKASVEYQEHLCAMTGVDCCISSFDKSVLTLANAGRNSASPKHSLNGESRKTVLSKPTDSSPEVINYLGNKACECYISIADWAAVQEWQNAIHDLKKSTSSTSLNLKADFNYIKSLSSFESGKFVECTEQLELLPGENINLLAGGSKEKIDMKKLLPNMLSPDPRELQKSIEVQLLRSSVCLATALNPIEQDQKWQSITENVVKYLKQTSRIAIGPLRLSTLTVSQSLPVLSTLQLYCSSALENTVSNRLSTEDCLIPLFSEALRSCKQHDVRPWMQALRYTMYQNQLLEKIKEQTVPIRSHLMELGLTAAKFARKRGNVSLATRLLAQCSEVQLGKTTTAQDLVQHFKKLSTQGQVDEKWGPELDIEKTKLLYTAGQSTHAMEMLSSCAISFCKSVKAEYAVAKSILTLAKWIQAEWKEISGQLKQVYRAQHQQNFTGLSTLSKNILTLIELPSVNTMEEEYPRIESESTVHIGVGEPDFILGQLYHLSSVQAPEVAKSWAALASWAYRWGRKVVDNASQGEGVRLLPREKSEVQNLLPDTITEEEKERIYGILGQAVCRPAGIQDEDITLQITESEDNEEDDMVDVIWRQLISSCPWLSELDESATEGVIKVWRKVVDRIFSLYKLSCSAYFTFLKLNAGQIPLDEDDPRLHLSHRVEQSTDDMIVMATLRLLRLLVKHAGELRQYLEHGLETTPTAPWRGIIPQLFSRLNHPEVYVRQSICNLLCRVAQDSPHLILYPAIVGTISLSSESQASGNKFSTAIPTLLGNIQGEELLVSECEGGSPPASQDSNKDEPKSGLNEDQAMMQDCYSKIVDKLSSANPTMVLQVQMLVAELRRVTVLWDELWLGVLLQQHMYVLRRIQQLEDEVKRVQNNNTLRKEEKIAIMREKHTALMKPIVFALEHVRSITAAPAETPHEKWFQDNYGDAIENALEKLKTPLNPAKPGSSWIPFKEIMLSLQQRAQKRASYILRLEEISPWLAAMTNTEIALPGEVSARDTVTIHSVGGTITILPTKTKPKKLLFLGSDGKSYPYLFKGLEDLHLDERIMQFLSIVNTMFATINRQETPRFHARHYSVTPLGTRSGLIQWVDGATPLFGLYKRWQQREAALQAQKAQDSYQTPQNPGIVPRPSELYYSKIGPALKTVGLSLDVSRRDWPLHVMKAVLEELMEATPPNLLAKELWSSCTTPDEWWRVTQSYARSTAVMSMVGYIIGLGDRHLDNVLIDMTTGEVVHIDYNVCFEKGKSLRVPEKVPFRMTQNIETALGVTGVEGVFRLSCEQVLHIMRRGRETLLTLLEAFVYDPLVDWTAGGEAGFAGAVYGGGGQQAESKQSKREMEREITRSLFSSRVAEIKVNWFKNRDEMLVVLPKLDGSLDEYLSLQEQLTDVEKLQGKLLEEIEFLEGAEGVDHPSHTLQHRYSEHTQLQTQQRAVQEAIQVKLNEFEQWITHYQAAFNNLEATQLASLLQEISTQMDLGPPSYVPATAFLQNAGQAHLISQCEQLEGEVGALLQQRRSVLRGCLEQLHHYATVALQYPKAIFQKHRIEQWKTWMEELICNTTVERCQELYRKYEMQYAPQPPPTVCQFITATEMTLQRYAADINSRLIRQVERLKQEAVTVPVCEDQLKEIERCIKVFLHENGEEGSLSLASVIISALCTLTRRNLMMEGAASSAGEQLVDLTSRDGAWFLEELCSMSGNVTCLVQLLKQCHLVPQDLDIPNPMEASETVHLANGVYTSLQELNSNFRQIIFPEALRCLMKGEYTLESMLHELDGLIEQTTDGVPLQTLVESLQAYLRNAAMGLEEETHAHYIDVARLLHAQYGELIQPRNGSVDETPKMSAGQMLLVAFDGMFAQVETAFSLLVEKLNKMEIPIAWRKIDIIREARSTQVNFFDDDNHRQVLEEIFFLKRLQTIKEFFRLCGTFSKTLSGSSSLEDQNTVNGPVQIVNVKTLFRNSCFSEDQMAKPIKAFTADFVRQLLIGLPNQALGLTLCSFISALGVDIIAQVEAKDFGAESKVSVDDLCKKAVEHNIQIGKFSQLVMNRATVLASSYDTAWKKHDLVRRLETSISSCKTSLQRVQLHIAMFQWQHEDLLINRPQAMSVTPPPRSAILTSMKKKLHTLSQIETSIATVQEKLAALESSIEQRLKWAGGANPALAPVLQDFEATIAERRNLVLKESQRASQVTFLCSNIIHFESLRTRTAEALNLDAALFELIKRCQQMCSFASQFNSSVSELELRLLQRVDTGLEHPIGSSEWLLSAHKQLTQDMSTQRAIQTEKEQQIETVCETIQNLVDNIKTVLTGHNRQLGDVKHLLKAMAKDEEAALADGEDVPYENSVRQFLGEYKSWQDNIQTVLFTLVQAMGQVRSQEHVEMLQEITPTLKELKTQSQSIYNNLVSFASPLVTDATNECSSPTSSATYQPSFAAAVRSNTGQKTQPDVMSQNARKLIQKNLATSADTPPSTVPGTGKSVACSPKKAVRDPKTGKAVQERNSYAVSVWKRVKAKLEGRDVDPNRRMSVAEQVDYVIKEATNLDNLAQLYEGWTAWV
UniProt O15234: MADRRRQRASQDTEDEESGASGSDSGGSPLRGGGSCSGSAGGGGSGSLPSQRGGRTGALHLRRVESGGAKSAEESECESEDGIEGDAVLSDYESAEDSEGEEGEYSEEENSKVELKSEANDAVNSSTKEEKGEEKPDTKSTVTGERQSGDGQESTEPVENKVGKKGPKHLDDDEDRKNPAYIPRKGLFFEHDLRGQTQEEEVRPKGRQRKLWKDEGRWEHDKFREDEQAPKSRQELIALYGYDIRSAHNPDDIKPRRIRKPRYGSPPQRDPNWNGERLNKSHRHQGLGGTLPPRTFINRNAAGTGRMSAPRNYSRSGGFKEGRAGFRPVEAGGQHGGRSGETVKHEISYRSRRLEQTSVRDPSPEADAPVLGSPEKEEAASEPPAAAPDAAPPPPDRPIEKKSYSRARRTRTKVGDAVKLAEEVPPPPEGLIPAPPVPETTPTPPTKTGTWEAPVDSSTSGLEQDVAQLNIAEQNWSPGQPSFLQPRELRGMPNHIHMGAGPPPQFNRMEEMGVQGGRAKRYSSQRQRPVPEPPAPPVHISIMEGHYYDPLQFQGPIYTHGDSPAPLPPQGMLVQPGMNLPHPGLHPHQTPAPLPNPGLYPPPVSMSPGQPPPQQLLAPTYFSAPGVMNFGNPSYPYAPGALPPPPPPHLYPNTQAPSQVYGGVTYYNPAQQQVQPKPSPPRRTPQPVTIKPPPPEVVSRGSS
UniProt O60573: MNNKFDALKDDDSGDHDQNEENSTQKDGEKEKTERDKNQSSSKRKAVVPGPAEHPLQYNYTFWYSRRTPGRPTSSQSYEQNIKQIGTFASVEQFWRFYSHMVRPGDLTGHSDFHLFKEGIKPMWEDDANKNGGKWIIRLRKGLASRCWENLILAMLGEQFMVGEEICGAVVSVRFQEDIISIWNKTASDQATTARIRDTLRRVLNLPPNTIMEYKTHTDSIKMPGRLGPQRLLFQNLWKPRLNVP

According to PMC8555832:

T1: StrepII-tagged GIGYF2 (GRB10 interacting GYF protein 2) (human) (UniProt Q6Y7W6)
T1 sequence: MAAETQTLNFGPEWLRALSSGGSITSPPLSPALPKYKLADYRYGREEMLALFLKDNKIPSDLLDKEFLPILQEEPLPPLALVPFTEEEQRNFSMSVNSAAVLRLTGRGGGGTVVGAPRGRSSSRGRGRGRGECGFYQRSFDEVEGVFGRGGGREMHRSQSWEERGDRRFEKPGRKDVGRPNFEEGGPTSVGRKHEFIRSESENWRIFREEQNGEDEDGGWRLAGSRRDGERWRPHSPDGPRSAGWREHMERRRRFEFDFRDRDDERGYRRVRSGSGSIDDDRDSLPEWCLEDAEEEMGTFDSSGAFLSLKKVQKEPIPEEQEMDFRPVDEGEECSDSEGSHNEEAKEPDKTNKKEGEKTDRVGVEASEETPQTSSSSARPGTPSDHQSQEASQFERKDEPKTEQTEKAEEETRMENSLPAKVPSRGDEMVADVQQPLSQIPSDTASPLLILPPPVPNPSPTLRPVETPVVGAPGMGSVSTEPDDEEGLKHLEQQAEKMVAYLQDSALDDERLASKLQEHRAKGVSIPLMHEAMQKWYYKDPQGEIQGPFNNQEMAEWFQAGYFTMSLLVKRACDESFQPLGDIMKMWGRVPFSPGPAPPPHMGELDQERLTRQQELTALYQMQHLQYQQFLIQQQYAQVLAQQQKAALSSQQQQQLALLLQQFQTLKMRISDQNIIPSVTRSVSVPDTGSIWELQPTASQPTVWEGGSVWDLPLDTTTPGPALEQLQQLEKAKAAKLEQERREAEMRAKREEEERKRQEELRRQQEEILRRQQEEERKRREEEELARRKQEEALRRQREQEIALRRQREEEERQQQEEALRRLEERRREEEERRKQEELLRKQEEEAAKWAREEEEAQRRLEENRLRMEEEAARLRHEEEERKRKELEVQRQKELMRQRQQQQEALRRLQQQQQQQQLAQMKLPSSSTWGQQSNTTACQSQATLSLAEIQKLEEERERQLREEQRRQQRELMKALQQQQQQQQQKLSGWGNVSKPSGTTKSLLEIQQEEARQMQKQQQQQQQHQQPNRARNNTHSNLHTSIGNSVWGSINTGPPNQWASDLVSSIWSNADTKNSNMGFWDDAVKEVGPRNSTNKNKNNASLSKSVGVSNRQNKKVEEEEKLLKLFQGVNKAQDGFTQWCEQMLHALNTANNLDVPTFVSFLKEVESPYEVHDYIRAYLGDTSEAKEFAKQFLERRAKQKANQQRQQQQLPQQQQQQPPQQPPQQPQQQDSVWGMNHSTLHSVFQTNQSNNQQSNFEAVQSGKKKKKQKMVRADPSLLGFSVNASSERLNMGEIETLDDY

B1: UPF3B (protein, UniProt Q9BZI7 1-483)
chain: MKEEKEHRPKEKRVTLLTPAGATGSGGGTSGDSSKGEDKQDRNKEKKEALSKVVIRRLPPTLTKEQLQEHLQPMPEHDYFEFFSNDTSLYPHMYARAYINFKNQEDIILFRDRFDGYVFLDNKGQEYPAIVEFAPFQKAAKKKTKKRDTKVGTIDDDPEYRKFLESYATDNEKMTSTPETLLEEIEAKNRELIAKKTTPLLSFLKNKQRMREEKREERRRREIERKRQREEERRKWKEEEKRKRKDIEKLKKIDRIPERDKLKDEPKIKVHRFLLQAVNQKNLLKKPEKGDEKELDKREKAKKLDKENLSDERASGQSCTLPKRSDSELKDEKPKRPEDESGRDYREREREYERDQERILRERERLKRQEEERRRQKERYEKEKTFKRKEEEMKKEKDTLRDKGKKAESTESIGSSEKTEKKEEVVKRDRIRNKDRPAMQLYQPGARSRNRLCPPDDSTKSGDSAAERKQESGISHRKEGGEE

Biological target: T1, StrepII-tagged GIGYF2 (GRB10 interacting GYF protein 2) (human)
Assay: affinity purification with mass spectrometry; StrepII-GIGYF2 captured from HEK293T lysate on MagStrep type 3 XT beads, 1 h, 4°C; lysis buffer 50 mM HEPES pH 7.4, 100 mM KOAc, 15 mM Mg(OAc)2, 5% glycerol, 0.5% Triton-X-100; eluted with biotin (Buffer BXT); LFQ intensity compared with a mock transfection; also with RNase A treatment of lysates, or cells treated with spliceostatin A (100 ng/ml, 16 h) or SMG1i (300 nM, 4 h)

Molecule | binding
SMG1 (from UniProt Q96Q15 1-3661) | binds
CASC3 (from UniProt O15234 1-703) | binds
EIF4E2 (eukaryotic initiation factor 4E2) (from UniProt O60573 1-245) | binds
B1 | binds

Results are given in words; binding and its absence hold for the method and conditions named. Binding seen in cells or lysates may run through a third protein. These calls come from enrichment with a bait or labelling near it, and not all partners need be listed. Tags and fused reporters may be left off the sequences shown.
